Experimental data as given in patent US20230203435A1.
These are yes or no findings as the source states them, for the method shown. Some binding calls cover weakened binding; strength is not graded here.

The chains behind the UniProt entries cited, without tags or fusion partners. Residues count along the entry.
UniProt P10145, residues 28-99: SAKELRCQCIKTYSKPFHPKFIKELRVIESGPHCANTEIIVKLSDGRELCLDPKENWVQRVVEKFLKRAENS

Target: interleukin 8 (CXCL8) (Shenandoah Biotechnology, Inc.) (UniProt P10145)
Test: ELISA on plate-coated interleukin 8 (CXCL8) (5 ug/mL), absorbance at 450 nm

B1: anti-IL-8 antibody (mouse/human chimeric antibody), light chain FR3 not substituted (antibody, human IgG1, kappa, V domains shown)
VH: EVKLVESGGGLVKPGGSLKLSCAASGFTFNNYAMSWVRQTPEKRLEWVASISSGGNTYYPDSVKGRFTLSRDNARNILYLQMSRLRSEDTAMYYCARDKLRLPNWYFDVWGAGTTVTVSS
VL: DIVLTQSPPSLAVSLGQRATISCKASQSVDYDGDSYMNWYQQKPGQPPKVLIYGASNLESGIPARFSGSGSGTDFTLNIYPVEEEDAATYYCQQSNEDPPTFGGGTKLEIKR
With B1 the binding was “binds”.
